Reference: article PMC9770150
Results are given in words; binding and its absence hold for the method and conditions named. In cells and extracts the contact can be indirect. Binding calls can cover weak binding; strength is not graded here. Where a sequence is shown, tags or fusion partners need not be part of it.

Target: p85-PI3K-Myc (p85 subunit of PI3K, Myc-tagged)
Experiment: co-IP; Flag-tagged MG53 (wild type or S255A) with p85-PI3K-Myc or CaV3-Myc in HEK293 cells

binding: binds
B1: Flag-tagged S255A mutant of MG53 (protein, UniProt Q6ZMU5 1-477)
chain: MSAAPGLLHQELSCPLCLQLFDAPVTAECGHSFCRACLGRVAGEPAADGTVLCPCCQAPTRPQALSTNLQLARLVEGLAQVPQGHCEEHLDPLSIYCEQDRALVCGVCASLGSHRGHRLLPAAEAHARLKTQLPQQKLQLQEACMRKEKSVAVLEHQLVEVEETVRQFRGAVGEQLGKMRVFLAALEGSLDREAERVRGEAGVALRRELGSLNSYLEQLRQMEKVLEEVADKPQTEFLMKYCLVTSRLQKILAEAPPPARLDIQLPIISDDFKFQVWRKMFRALMPALEELTFDPSSAHPSLVVSSSGRRVECSEQKAPPAGEDPRQFDKAVAVVAHQQLSEGEHYWEVDVGDKPRWALGVIAAEAPRRGRLHAVPSQGLWLLGLREGKILEAHVEAKEPRALRSPERRPTRIGLYLSFGDGVLSFYDASDADALVPLFAFHERLPRPVYPFFDVCWHDKGKNAQPLLLVGPEGAEA
